In PubChem BioAssay AID1347075 (National Center for Advancing Translational Sciences (NCATS), 2019):
Where “and” joins values, the source holds several entries; their conditions need not be identical. Equal entries are not always repeated. Out of some 400,000 compounds screened, about 5,500 (1.4%) were called active. Inconclusive results, whose numbers are uncertain, are shown with a selection of clear calls. Calls come from the whole dose curve; as a rule, active = well fitted cell-killing curve with a large enough effect; inconclusive = small, poorly fitted or top-dose-only effect, or effect the other way; inactive = flat fitted curve, though single readings scatter. Potencies beside an inconclusive call are fits to weak or partial responses and may not hold up.
% is set by controls: 0 for no effect and ±100 for the full control effect; potency is the fitted concentration of half-maximal effect.

Test: qHTS assay for MDR1-selective chemotherapeutics: Primary screen using the parental adenocarcinoma cell KB-3-1; note: nearly all actives have a fitted effect of over 60% in size
Conditions: KB-3-1 viability, CellTiter-Glo ATP luminescence, 72 h; activity change, negative = cytotoxic: at 46.1 µM (top of the series)
Method in brief: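 Using CellTiter-Glo luminescence, growth of non-resistant KB-3-1 adenocarcinoma cells is assessed 72 h after pin-tool compound addition at 37 °C. Normalized responses across the concentration series yield fitted curves.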
In the case of `Cc1cccn2c(=O)c3cc(C(=O)NCc4ccco4)c(=N)n(C4CCCC4)c3nc12`, the Potency is reported as “inactive”.
In the case of `COc1ccc(C(=O)COC(=O)c2ccc(N(C)C)cc2)cc1`, the Potency is reported as “inactive”.
With `COc1ccc(OC)c(NS(=O)(=O)c2ccc(Cl)s2)c1` the Potency was inconclusive: 23.1 µM [cytotoxic, single point].
With `COc1cc2cc3c(N)c(C(=O)NCc4ccco4)sc3nc2cc1OC` the Potency was “inactive”.
With `COc1cccc(C(=O)NCCS(=O)(=O)N2CCC3(CC2)OCCO3)c1` the Potency was “inactive”.
In the case of `COc1ccc(C(=O)Nc2ccc3c(c2)CCCN3S(=O)(=O)c2ccc(C)cc2)cc1`, the Potency is reported as inconclusive: 16.4 µM [cytotoxic, partial curve, poor fit].
For `COc1cccc(/C=N/Nc2cc(N3CCOCC3)ncn2)c1O`, the Potency was active: 10.3 µM.
In the case of `O=C(c1ccccc1)N1N=C(c2ccccc2O)CC1c1ccccc1` (stereo unspecified), the Potency is reported as “inactive”.
For `CC(C)c1ccc(C(=O)Nc2ccc(N3CCOCC3)cc2)cc1`, the Potency was inconclusive: 32.6 µM [cytotoxic, single point].
With `O=C(Cn1nc(-c2ccccc2)ccc1=O)Nc1ccc(N2CCN(C(=O)c3cccs3)CC2)cc1` the Potency was inconclusive: 0.0065 µM [cytotoxic, full curve].
With `COc1ccccc1-c1cc(C(=O)Nc2c(C)nn(Cc3ccc(Cl)cc3)c2C)no1` the Potency was inconclusive: 16.4 µM [cytotoxic, partial curve, poor fit].
For `O=C(NCc1ccco1)c1cc2ccc(O)cc2oc1=O`, the Potency was inconclusive: 18.4 µM [cytotoxic, single point].
In the case of `CCNc1ccc(/C=C/c2ccnc3ccccc23)cc1`, the Potency is reported as inconclusive: 23.1 µM [cytotoxic, single point].
For `NC(=O)NNC1=Nc2cccc3cccc1c23`, the Potency was “inactive”.
For `COc1ccc(-c2cn3nc(N4CCCC(C(=O)Nc5ccccc5F)C4)sc3n2)cc1` (stereo unspecified), the Potency was “inactive”.
For `CCN(c1ccccc1)S(=O)(=O)c1ccc(OC)c(NC(=O)CN2C(=O)NC(C)(C)C2=O)c1`, the Potency was inconclusive: 25.9 µM [rising, single point].
With `Cc1cccc(OCCC(=O)OCC(=O)N2c3ccccc3NC(=O)C2(C)C)c1` the Potency was “inactive”.
For `CN(C)c1ccc(/C=C/C(=O)c2cccnc2)cc1`, the Potency was inconclusive: 0.731 µM [cytotoxic, partial curve, poor fit].
With `Cc1onc(-c2ccccc2Cl)c1-c1nc(-c2ccccn2)no1` the Potency was “inactive”.
With `CC(C)(Oc1ccc(Cl)cc1)C(=O)Nc1ccc(-c2nc3ncccc3o2)cc1` the Potency was “inactive”.
For `Cc1ccnc(Nc2nc(-c3sc(C)nc3C)cs2)c1`, the Potency was inconclusive: 20.6 µM [cytotoxic, single point].
In the case of `CCCOc1ncnc2c1[nH]c1ccc(OC)cc12`, the Potency is reported as inconclusive: 29.1 µM [cytotoxic, single point].
In the case of `COc1ccc2nc(N/C(N)=N/C(=S)Nc3ccccc3)nc(C)c2c1`, the Potency is reported as inconclusive: 29.1 µM [cytotoxic, single point].
With `Cc1ccsc1C(=O)N/N=C/c1ccc2c(c1)OCO2` the Potency was inconclusive: 13 µM [cytotoxic, partial curve].
With `COc1ccc(-c2nc3oc4cc(OC)ccc4c(=O)c3c(=O)n2Cc2ccco2)cc1` the Potency was inconclusive: 29.1 µM [rising, partial curve, poor fit].
With `O=C(O)CCCC(=O)NCc1c(Cl)cccc1Sc1ccc(Cl)cc1` the Potency was inconclusive: 0.291 µM [rising, full curve, poor fit].
With `CC(=O)N1CCc2c(sc(NC(=O)c3ccc([N+](=O)[O-])o3)c2C#N)C1` the Potency was inconclusive: 14.6 µM [cytotoxic, partial curve, poor fit].
With `O=C1NC2c3ccccc3C(=O)N2c2c1cnn2-c1ccccc1` (stereo unspecified) the Potency was inconclusive: 18.4 µM [cytotoxic, single point].
In the case of `COc1ccc(/C=N/Nc2nonc2N)c(OC)c1`, the Potency is reported as inconclusive: 6.51 µM [cytotoxic, partial curve].
For `COc1ccc(Cn2ccc3nc(C)c(C(=O)Nc4ccc(OC)c(OC)c4)cc3c2=O)cc1`, the Potency was “inactive”.
For `Cc1nnc(NC(=O)CCC(=O)N2CCN(S(=O)(=O)c3cc([N+](=O)[O-])ccc3C)CC2)s1`, the Potency was “inactive”.
With `C/C(=N\Nc1cccc2cccnc12)c1ccc(N)cc1` the Potency was “inactive”.
With `O=C(Nc1ccccc1)NN(C(=O)CCl)c1ccccc1` the Potency was active: 23.1 µM.
With `CCC(C)C(NC(=O)c1ccccc1NC(=O)c1ccccc1)C(=O)N1CCOCC1` (stereo unspecified) the Potency was inconclusive: 32.6 µM [rising, single point].
In the case of `CCCCCOc1ccc(/C=C/c2c([N+](=O)[O-])c(=O)n(C)c(=O)n2C)cc1`, the Potency is reported as inconclusive: 18.4 µM [cytotoxic, single point].
In the case of `COCc1cc(C)nc(SCC(=O)Nc2ccccc2C)c1C#N`, the Potency is reported as inconclusive: 29.1 µM [cytotoxic, single point].
For `Cc1ccc2nc(NCCC(=O)O)nc(-c3ccccc3)c2c1`, the activity change, negative = cytotoxic was inconclusive: -41.5% [cytotoxic].
In the case of `CC(C)c1ccc(/C=C2\NC(=S)N(Cc3cccnc3)C2=O)cc1`, the Potency is reported as inconclusive: 32.6 µM [cytotoxic, single point].
In the case of `CCC1Oc2ccc(C)cc2N(CC(=O)NCCC2=CCCCC2)C1=O` (stereo unspecified), the Potency is reported as inconclusive: 29.1 µM [cytotoxic, single point].
In the case of `Cc1ccc(S(=O)(=O)N(Cc2ccc(Cl)cc2)c2ccccc2C(=O)NCc2cccnc2)cc1`, the Potency is reported as inconclusive: 20.6 µM [cytotoxic, single point].
For `O=C(CN1CCOCC1)NN=Cc1ccc([N+](=O)[O-])o1`, the Potency was “inactive”.
In the case of `Cc1ccc(S(=O)(=O)N2CCOCC2)cc1NC(=O)COC(=O)c1cncc(Br)c1`, the Potency is reported as inconclusive: 23.1 µM [rising, partial curve, poor fit].
With `O=Nc1ccc(O)c2ncccc12` the Potency was active: 20.6 µM.
In the case of `CCCc1nc2ccccc2c(C(=O)OCC(=O)NC2CC2)c1CC`, the Potency is reported as inconclusive: 18.4 µM [cytotoxic, single point].
In the case of `COCCNC(=O)CN1C(=O)NC(c2ccccc2)(c2ccccc2)C1=O`, the Potency is reported as “inactive”.
For `CCOC(=O)c1sc(NC(=O)Nc2cccc(Cl)c2)cc1C`, the Potency was inconclusive: 29.1 µM [cytotoxic, single point].
In the case of `CNCCCC1Sc2ccccc2Oc2ccccc21` (stereo unspecified), the Potency is reported as inconclusive: 29.1 µM [cytotoxic, single point].
For `O=C(CCN1CCCCC1=O)NC1CCCc2c1cnn2-c1ccccc1F` (stereo unspecified), the Potency was “inactive”.
With `O=c1cc(-c2ccccc2Cl)oc2c(NS(=O)(=O)c3ccccc3OC(F)(F)F)ccc(O)c12` the Potency was inconclusive: 32.6 µM [cytotoxic, single point].
With `COc1ccc(CC(=O)NCc2ccccc2)cc1` the Potency was inconclusive: 4.61 µM [cytotoxic, full curve, poor fit].
In the case of `COc1ccc(-c2cc([C@H]3[C@H]4C=CC[C@@H](C)[C@@H]4C(=O)N3Cc3ccccc3)ccc2F)cc1OC`, the Potency is reported as active: 16.4 µM.
In the case of `Cc1ccc2c(O)c(C)c(=O)[nH]c2n1`, the Potency is reported as “inactive”.
In the case of `COc1cccc(-c2nc(CS(=O)(=O)CC(=O)Nc3cc(OC)ccc3OC)c(C)o2)c1`, the Potency is reported as “inactive”.
In the case of `Cn1c(=O)c2c(ncn2CC(=O)OCCCC(=O)c2ccc(Br)cc2)n(C)c1=O`, the Potency is reported as “inactive”.
In the case of `COc1ccc(Cc2cc(NCc3ccccc3)c3ncn(C(C)C)c3c2)cc1`, the Potency is reported as inconclusive: 29.1 µM [cytotoxic, single point].
With `CCN1CCN(Cc2c3ccccc3cc3ccccc23)CC1` the Potency was inconclusive: 29.1 µM [cytotoxic, single point].
For `Cc1nn(-c2ccccc2)c2c1N(CCCC(=O)NCc1ccc(OC(C)C)cc1)C(=O)CS2`, the Potency was inconclusive: 25.9 µM [cytotoxic, single point].
For `COc1ccc(Cl)cc1NC(=O)C1CCCN(S(=O)(=O)c2ccc3c(c2)CCCC(=O)N3)C1` (stereo unspecified), the Potency was inconclusive: 16.4 µM [cytotoxic, single point].
For `Cc1[nH]n(-c2cccc(Cl)c2)c(=O)c1/C=N/n1c(C)nc2ccccc2c1=O`, the Potency was active: 10.3 µM.
For `O=C(O)c1ccc(N2C(=O)/C(=C/C=C/c3ccccc3)SC2=S)cc1`, the Potency was “inactive”.
For `O=C(NCCCN1CCOCC1)c1ccc(Sc2ccccc2Cl)c([N+](=O)[O-])c1`, the Potency was inconclusive: 32.6 µM [cytotoxic, partial curve, poor fit].
For `CCn1c(O)c(/C=C2\C=Nc3ccccc32)sc1=O`, the Potency was inconclusive: 29.1 µM [rising, single point].
With `CC(C)(C)[C@@H]1CCC(=O)N(CC[C@H](Sc2ccc(Br)cc2)c2ccccc2)CC1` the Potency was inconclusive: 16.4 µM [cytotoxic, single point] and inconclusive: 29.1 µM [cytotoxic, single point].
For `O=C(C1CCCCC1)N1CCCC(c2nc(-c3ccc(F)cc3)no2)C1` (stereo unspecified), the Potency was “inactive”.
In the case of `CCC(=NCCc1c(C)[nH]c2ccccc12)C1=C(O)CC(c2ccccc2)CC1=O` (stereo unspecified), the Potency is reported as active: 4.61 µM.
For `Clc1ccc(-c2nn3c(-c4cc(-c5ccccc5)n[nH]4)nnc3s2)cc1`, the Potency was “inactive”.
In the case of `OC(CNC1CCCCC1)CON=C1CCSc2c(Cl)cccc21` (stereo unspecified), the Potency is reported as inconclusive: 20.6 µM [cytotoxic, single point].
For `CCc1ccc(S(=O)(=O)/N=C2\C=C(Nc3ccc(O)cc3)C(=O)c3ccccc32)cc1`, the Potency was active: 2.91 µM.
In the case of `Cc1ccc(C(=O)N/N=C\c2ccc([N+](=O)[O-])o2)cn1`, the Potency is reported as inconclusive: 18.4 µM [cytotoxic, single point].
In the case of `Cc1ccc(S(=O)(=O)N2CCN(Cc3ccccc3C(F)(F)F)CC2)cc1`, the Potency is reported as “inactive”.
For `C(=NN=C(NN=Cc1cccs1)NN=Cc1cccs1)c1cccs1`, the Potency was inconclusive: 25.9 µM [cytotoxic, single point].
